Source: US20180299431A1, “Explant Assay to Determine the Potential for Compositions to Promote or to Inhibit Neural Tube Defects” (Board of Supervisors of Louisiana State University and …, priority 2015, published 2018)

Tested on: diabetic NOD pregnancies
Test: NOD diabetic pregnancies and folinic acid supplementation
Assay type: in vivo, mouse
Protocol: All animal experiments were performed with prior approval from the Pennington Biomedical Research Center IACUC, and were conducted in accordance with the “Guide for the care and use of laboratory animals” of the United States National Institutes of Health. Animals were housed with a 12-hour light/dark cycle, with access to food and water ad libitum. Mice of the Non-Obese Diabetic strain (NOD/ShiLtJ, The Jackson Laboratory, Bar Harbor, Me.; sometimes referred to as “NOD” mice), as well as male mice of strain FVB were kept on Purina™ 5001 diet (calories provided by: Protein, 28.5%; Fat, 13.5%; Carbohydrate, 58%. LabDiet, Purina Mills Inc., Gray Summit, Mo.). Females of strain FVB were kept on Purina 5015 diet (calories provided by: Protein, 19.8%; Fat, 25.3%; Carbohydrate, 54.8%). Blood glucose levels were monitored weekly in NOD mice. Once blood glucose exceeded 250 mg/dl, females were considered diabetic, and were then used for mating and production of embryos. Diabetic as well as normoglycemic NOD female mice were mated to normoglycemic NOD male mice; once NOD males became hyperglycemic, they were retired from the experiment and were no longer used. Supplementation with folinic acid (12.5 mg/kg body weight, once per week by intraperitoneal injection) was initiated at the age of 10 weeks in 56 NOD females. […]

## Nc1nc(=O)c2c([nH]1)NCC(CNc1ccc(C(=O)N[C@@H](CCC(=O)O)C(=O)O)cc1)N2C=O (mixture of isomers) [folinic acid]
NOD females supplemented from age 10 weeks, 12.5 mg/kg once per week i.p., vs unsupplemented NOD females, Kaplan-Meier p=0.8639
  time to subsequent onset of hyperglycemia: did not significantly affect
Supplemented vs non-supplemented groups, ANOVA p=0.51
  maternal hyperglycemia levels at mating and at dissection: not significantly different
